The values that follow come from patent publication US20180177890A1 (priority 2015, published 2018).

The first data set can be described thus: general procedure: solution-phase peptide synthesis; 2-(7-azobenzotriazole)-N,N,N',N'-tetramethyluronium hexafluorophosphate (HATU). As to conditions: conjugation step.
In turn, “(S)-2-((2R,3R)-3-((2S,5S)-1-((3R,4S,5S)-4-((S)-2-((S)-2-(6-(2,5-dioxo-2,5-dihydro-1H-pyrrol-1-yl)-N-methylhexanamido)-3-methylbutanamido)-N,3-dimethylbutanamido)-3-methoxy-5-methylheptanoyl)-5-methylpyrrolidin-2-yl)-3-methoxy-2-methylpropanamido)-3-phenylpro” yielded a conjugation yield of 30.9%.
Still for that read-out and setting: the figure for “(S)-2-((2R,3R)-3-((S)-1-((3R,4S,5S)-4-((S)-2-((S)-2-(6-(2,5-dioxo-2,5-dihydro-1H-pyrrol-1-yl)-N-methylhexanamido)-3-methylbutanamido)-N,3-dimethylbutanamido)-3-methoxy-5-methylheptanoyl)-4-methylenepyrrolidin-2-yl)-3-methoxy-2-methylpropanamido)-3-phenylpropanoic acid” is 4.6%.
In turn, “(S)-2-((2R,3R)-3-((1S,3S,5S)-2-((3R,4S,5S)-4-((S)-2-((S)-2-(6-(2,5-dioxo-2,5-dihydro-1H-pyrrol-1-yl)-N-methylhexanamido)-3-methylbutanamido)-N,3-dimethylbutanamido)-3-methoxy-5-methylheptanoyl)-2-azabicyclo[3 0.1.0]hexan-3-yl)-3-methoxy-2-methylpropanamido)-3-phen” gave a conjugation yield of 42%.

The same data set, now with this note: coupling step.
With “(S)-tert-butyl 2-((2R,3R)-3-((S)-5-((5S,8S,11S,12R)-11-((S)-sec-butyl)-1-(9H-fluoren-9-yl)-5,8-diisopropyl-12-methoxy-4,10-dimethyl-3,6,9-trioxo-2-oxa-4,7,10-triazatetradecan-14-oyl)-5-azaspiro[2.4]heptan-6-yl)-3-methoxy-2-methylpropanamido)-3-(2-fluorophenyl)propan”, the step yield came to 53.4%.
Same read-out and setting: the figure for “(S)-tert-butyl 2-((2R,3R)-3-((1S,3S,5S)-2-((5S,8S,11S,12R)-11-sec-butyl-1-(9H-fluoren-9-yl)-5,8-diisopropyl-12-methoxy-4,10-dimethyl-3,6,9-trioxo-2-oxa-4,7,10-triazatetradecane)-2-azabicyclo[3.1.0]hexan-3-yl)-3-methoxy-2-methylpropanamido)-3-(2-chlorophenyl)propanoat” is 53.1%.
Same read-out and setting: then “(S)-methyl 2-((2R,3R)-3-((S)-1-((5S,8S,11S,12R)-11-((S)-sec-butyl)-5,8-diisopropyl-12-methoxy-4,10-dimethyl-3,6,9-trioxo-1-phenyl-2-oxa-4,7,10-triazatetradecan-14-oyl)pyrrolidin-2-yl)-3-methoxy-2-methylpropanamido)-3-(4-fluorophenyl)propanoate”, with 84.6%; and “(S)-tert-butyl 2-((2R,3R)-3-((1S,3S,5S)-2-((5S,8S,11S,12R)-11-((S)-sec-butyl)-1-(9H-fluoren-9-yl)-5,8-diisopropyl-12-methoxy-4,10-dimethyl-3,6,9-trioxo-2-oxa-4,7,10-triazatetradecan-14-oyl)-2-azabicyclo[3.1.0]hexan-3-yl)-3-methoxy-2-methylpropanamido)-3-phenylp”, with 54.9%; and “(S)-tert-butyl 2-((2R,3R)-3-((S)-1-((5S,8S,11S,12R)-11-((S)-sec-butyl)-1-(9H-fluoren-9-yl)-5,8-diisopropyl-12-methoxy-4,10-dimethyl-3,6,9-trioxo-2-oxa-4,7,10-triazatetradecan-14-oyl)pyrrolidin-2-yl)-3-methoxy-2-methylpropanamido)-3-(2-fluorophenyl)propanoate”, with 96.5%.
In the case of “(S)-tert-butyl 2-((2R,3R)-3-((S)-1-((5S,8S,11S,12R)-11-((S)-sec-butyl)-1-(9H-fluoren-9-yl)-5,8-diisopropyl-12-methoxy-4,10-dimethyl-3,6,9-trioxo-2-oxa-4,7,10-triazatetradecan-14-oyl)-4-methylenepyrrolidin-2-yl)-3-methoxy-2-methylpropanamido)-3-phenylpropanoate”, the step yield is 64.7%.

The data set is the same for the next values; noted with them: late stage modification step.
Turning to “(S)-2-((2R,3R)-3-((2S,5S)-1-((3R,4S,5S)-4-((S)—N,3-dimethyl-2-((S)-3-methyl-2-(methylamino)butanamido)butanamido)-3-methoxy-5-methylheptanoyl)-5-methylpyrrolidin-2-yl)-3-methoxy-2-methylpropanamido)-3-phenylpropanoic acid”, the step yield is 23%.
The same measure, in the same setting: then “(S)-2-((2R,3R)-3-((S)-1-((3R,4S,5S)-4-((S)—N,3-dimethyl-2-((S)-3-methyl-2-(methylamino)butanamido)butanamido)-3-methoxy-5-methylheptanoyl)pyrrolidin-2-yl)-3-methoxy-2-methylpropanamido)-3-(2-fluorophenyl)propanoic acid”, with 28.4%.
The same measure, in the same setting: then “(S)-2-((2R,3R)-3-((S)-1-((3R,4S,5S)-4-((S)—N,3-dimethyl-2-((S)-3-methyl-2-(methylamino)butanamido)butanamido)-3-methoxy-5-methylheptanoyl)-4-methylenepyrrolidin-2-yl)-3-methoxy-2-methylpropanamido)-3-phenylpropanoic acid”, with 11.9%.
In turn, “(S)-2-((2R,3R)-3-((2S,4S)-1-((3R,4S,5S)-4-((S)—N,3-dimethyl-2-((S)-3-methyl-2-(methylamino)butanamido)butanamido)-3-methoxy-5-methylheptanoyl)-4-fluoropyrrolidin-2-yl)-3-methoxy-2-methylpropanamido)-3-phenylpropanoic acid” showed a step yield of 21.5%.
As for “(S)-2-((2R,3R)-3-((1S,3S,5S)-2-((3R,4S,5S)-4-((S)—N,3-dimethyl-2-((S)-3-methyl-2-(methylamino)butanamido)butanamido)-3-methoxy-5-methylheptanoyl)-2-azabicyclo[3.1.0]hexan-3-yl)-3-methoxy-2-methylpropanamido)-3-phenylpropanoic acid”, the step yield is reported as 22.7%.
As to “(S)-3-(2-chlorophenyl)-2-((2R,3R)-3-((1S,3S,5S)-2-((3R,4S,5S)-4-((S)—N,3-dimethyl-2-((S)-3-methyl-2-(methylamino)butanamido)butanamido)-3-methoxy-5-methylheptanoyl)-2-azabicyclo[3.1.0]hexan-3-yl)-3-methoxy-2-methylpropanamido)propanoic acid”, the step yield is recorded as 35.7%.
The same measure, in the same setting: the figure for “(S)-2-((2R,3R)-3-((1S,3S,5S)-2-((3R,4S,5S)-4-((S)—N,3-dimethyl-2-((S)-3-methyl-2-(methylamino)butanamido)butanamido)-3-methoxy-5-methylheptanoyl)-2-azabicyclo[3.1.0]hexan-3-yl)-3-methoxy-2-methylpropanamido)-3-(2-fluorophenyl)propanoic acid” is 20%; for “(S)-2-((2R,3R)-3-((S)-5-((3R,4S,5S)-4-((S)—N,3-dimethyl-2-((S)-3-methyl-2-(methylamino)butanamido)butanamido)-3-methoxy-5-methylheptanoyl)-5-azaspiro[2.4]heptan-6-yl)-3-methoxy-2-methylpropanamido)-3-(2-fluorophenyl)propanoic acid” it is 96%.
On the same count and under the same terms, then “(S)-2-((2R,3R)-3-((S)-1-((3R,4S,5S)-4-((S)—N,3-dimethyl-2-((S)-3-methyl-2-(methylamino)butanamido)butanamido)-3-methoxy-5-methylheptanoyl)pyrrolidin-2-yl)-3-methoxy-2-methylpropanamido)-3-(4-fluorophenyl)propanoic acid”, with 25.2%.
